# Some of the results follow. These are further read-outs of the screen, such as a control signal, another cell line or another target. No call is given for them. The list favours compounds with an active or inconclusive main result. The note in brackets gives the kind of curve behind each potency; many fits are weak.
# Experiment: qHTS Assay to Find Inhibitors of Chronic Active B-Cell Receptor Signaling
# Settings: ABC-DLBCL IkBa-CBG/CBR reporter, luminescence ratio (green luciferase fused to IkBa over red control in TMD8 lymphoma cells), 4 h
# Summary of the method: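 Cell line TMD8 (human ABC DLBCL), stably expressing tet-inducible CBG68-IkBa fusion and CBR; IMDM/0.5% FBS; cpd up to 46 uM; dox induction, 4 h, 37C/5% CO2; dual luminescence; green/red ratio; MG132 control.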
# [1] = measured here: CBR red luminescence, cell number
# [2] = measured here: IkBa-CBG green luminescence
Compound,AC50 [1],AC50 [2]
CCOC(=O)c1ccc(NC(=O)N2CC(C)OC(C)C2)cc1 (stereo not drawn),"6.31 µM [falling, single point]",–
O=C(Nc1cccnc1)c1cc(S(=O)(=O)N2CCCCC2)c(Cl)cc1Cl,"35.5 µM [falling, single point]",–
COc1ccc(C(=O)O/N=C(\N)c2ccccn2)cc1,"0.398 µM [falling, full curve]",–
Cc1cc(=O)[nH]c2ccc(S(=O)(=O)Nc3ccccc3)cc12,"35.5 µM [rising, single point]",–
Cc1onc(-c2ccccc2)c1C(=O)OCC(=O)Nc1ccc(Cl)cc1,"20.6 µM [falling, partial curve]",–
Cc1ccc(S(=O)(=O)NN2C(=O)/C(=C/c3ccccn3)SC2=S)cc1,–,"18.4 µM [rising, partial curve, poor fit]"
CCCCCCn1c(C)nc2c(c1=O)c1nc3ccccc3nc1n2/N=C/c1ccco1,"29.1 µM [rising, single point]",–
COC(=O)/C=C/C(=O)N1CCN(c2cccc(Cl)c2)CC1,"16.4 µM [falling, partial curve, poor fit]","32.6 µM [rising, partial curve, poor fit]"
CCCCN1C(=O)NC2NC(=O)NC21 (stereo not drawn),"0.651 µM [rising, partial curve, poor fit]",–
Cc1cc(C)n2cc(COc3ccc4ccccc4c3)nc2n1,"29.1 µM [falling, single point]",–
COc1ccccc1C(=O)NNC(=O)c1ccc(Cl)cc1,"22.4 µM [falling, partial curve, poor fit]",–
CC[C@]12c3[nH]c4ccc(Cl)cc4c3CCN1C(=O)[C@@H](CC(=O)NCCC1=CCCCC1)C[C@@H]2C(=O)N1CCN(C(=O)c2ccco2)CC1,"16.4 µM [falling, partial curve]",–
Cc1ccc(C(=O)c2c3ccc([N+](=O)[O-])cc3[n+]([O-])n2CCCC(N)=O)cc1,"6.51 µM [rising, full curve, poor fit]",–
CC(C)/C=C1\CC/C(=C\c2ccc(N(C)C)cc2)C1=O,"0.206 µM [rising, full curve]",–
COC(=O)c1ccc(CSc2n[nH]c(-c3ccccc3)n2)o1,"35.5 µM [falling, single point]",–
CCc1cc(C(=O)Nc2nnc(C3CC3)s2)sc1C,"0.00517 µM [rising, full curve, poor fit]",–
CCOC(=O)C1(Cc2ccc(Cl)cc2)CCN(CCCn2cccn2)CC1,"11.2 µM [rising, partial curve]",–

# Record cards (already shown). Order of values: AC50 [1]	AC50 [2]
# `COc1ccc(C(=O)O/N=C(\N)c2ccccn2)cc1` in the list: 0.398 µM [falling, full curve]	–
# `CCOC(=O)c1ccc(NC(=O)N2CC(C)OC(C)C2)cc1` (stereo not drawn) in the list: 6.31 µM [falling, single point]	–

# Source: PubChem BioAssay AID493014 (National Center for Advancing Translational Sciences (NCATS), 2011)
